Z-score data for 104 sequences are collected here from PubChem BioAssay AID1347423 (Functional Genomics Laboratory (NCATS/FGL), 2020).

The campaign covered roughly 52,000 sequences. About 210 (0.4%) were called active.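 The calls were made as follows: active = gene whose silencing raises cell survival under the drug, median off-target-corrected z-score across its silencing RNAs 2 or more; inactive = the rest.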 The list shows a part of the results.

The nature of the assay: Resistance to Poly (ADP-Ribose) Polymerase inhibitor: Gene Identification via Genome-wide siRNA Screen. As to conditions: mouse BRCA2 R2336H ES cells, olaparib, CellTiter-Glo viability; active compounds read high. The method in brief: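 Genome-wide siRNA screen (3 siRNAs/gene, 20 nM) in mouse ES cells carrying hypomorphic BRCA2 R2336H; olaparib 500 nM added 48 h post-transfection, CellTiter-Glo viability 72 h later. Normalized to plate-median negative control; MAD z-scores, gene median, seed-adjusted.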
(Cellular ATP, detected with luciferase, serves as a proxy for viable cell number.)
“GCCGAUGAUACCAAACCGATT against 3230401D17Rik”: the z-score was inactive: 2.44.

On to GGGUCAUCCUCUAUGCAGUTT against Taar6, for which the z-score was inactive: 1.9.

As for CCGUCACUAUACCCAAGUUTT against Olfr802, the z-score was inactive: -3.11.

Consider CGUUCCAAAUUAGACUUGUTT against Gm631, for which the z-score was inactive: 1.38.

Regarding GCAACGUAACAUUACUAUCTT against Lgr8, the z-score was inactive: 1.89.

Regarding GGUGUUUCCGUUGUAAAAATT against Tuba6, the z-score is inactive: -0.219.

For GAUAAUUGGUUUACAGACUTT against V1rc24, the z-score was inactive: 0.959.

For the sequence CCUGCUCAAACUUUUGUGGTT against Gm1382, the z-score was inactive: 0.598.

As for “GAAUCUUAGGAAGAUGACATT against 2310040M23Rik”, the z-score is inactive: -0.934.

As to GGACUUGGAAUAUGGACCATT against Mds1, the z-score was inactive: 0.1.

GGUCCAGAUCAGUUGACAGTT against Sfrs5: the z-score is inactive: -2.84.

Turning to GGGAACAGAAGUUGUGAGATT against Gulp1, the z-score was inactive: -0.203.

Take GGAUCUGUACAAGACUUAUTT against Olfr800: the z-score is inactive: -0.945.

For the sequence “GGGUUCUCUUGAGUUACAGTT against 6330516O17Rik”, the z-score was inactive: -1.13.

Regarding GGUCUUGGACUUGUAUUACTT against Pcdha4, the z-score is inactive: 0.336.

For the sequence GCCCAUUAUUUUCGGACUGTT against Olfr845, the z-score is inactive: -2.22.

Consider GGGUGCAGUGGAGUCUAUUTT against Smc1l1, for which the z-score is inactive: -2.68.

As to CCGAUAAUGCUUUCUUUGGTT against Ppp1cc, the z-score is inactive: 0.506.

In the case of GGUGGCUGUACUUUUGAUGTT against Ptprk, the z-score was inactive: 0.515.

For GCUACAGUAGUAAGACUAATT against Usp53, the z-score is inactive: -1.83.

As for CGGAAAUCGGCAAGCUUCUTT against Dtymk, the z-score was inactive: 1.51.

In the case of GGAGAUAAUUGGUUUACAGTT against V1rc24, the z-score is inactive: 1.29.

Take CCGCGUAGUGGAUACAUUUTT against Ap3m2: the z-score was inactive: -0.882.

Consider GGAAGUACUCUGAAGAUUCTT against Jarid1b, for which the z-score is inactive: 0.476.

As to “GGGCAUGAAAGAAUUCUUATT against D130040H23Rik”, the z-score is inactive: -0.304.

For GGCCAUGAAGGAAUAUGAATT against Cdc37, the z-score was inactive: 0.231.

For the sequence GGGCAUUUGCUGUAAAUUATT against Hace1, the z-score was inactive: 0.61.

Consider GGCAACAAUGAGAGAAGAATT against Scye1, for which the z-score was inactive: -1.25.

For “GGAUCAUGGUCAUCACUGUTT against 6030458H05”, the z-score is inactive: 0.0686.

In the case of GGAAGAGGAUGAGUUAGGGTT against Ppp1r1b, the z-score was inactive: 0.393.

Take “GCUGUUGAAAGCCUUCUGGTT against 2310040M23Rik”: the z-score was inactive: 0.963.

With GGGUGUUCCAGAAGUAUCUTT against Lars2, the z-score is inactive: -0.99.

On to GCUUUUAGAAUAAAGCUGATT against Fgl2, for which the z-score was inactive: -0.121.

For “GGAAAGAAAAGCCUUAGAATT against A530083I02Rik”, the z-score is inactive: -0.538.

Consider “GGAAUCUCAGCCUUGAAAGTT against 0710008K08Rik”, for which the z-score is inactive: 0.111.

Regarding “CCACUGAAGGAAGUUCGCUTT against 2600011E07Rik”, the z-score was inactive: -1.18.

As for “UCCUGGAGAUUUGACCGAGTT against 1700011J10Rik”, the z-score was inactive: 0.173.

Consider GGAAAACAAGAAAGAUGAATT against Rnut1, for which the z-score is inactive: -0.538.

On to UCAGGAUACAAUCAUCGCCTT against Olfr101, for which the z-score is inactive: -0.636.

Regarding GGCAAUGAGACAAUUGUCATT against Cpe, the z-score was inactive: -0.483.

As to GGUACCUGAGGUAGAAAAGTT against Pnma3, the z-score is inactive: -0.877.

As to “CCGCUCUUUUACAGCUGGATT against 2410005K20Rik”, the z-score is inactive: -0.827.

With “CCACAUUUGGAACCUACGATT against 1200008A14Rik”, the z-score is inactive: 0.645.

For GGUUCGAGUUUCAUACUAUTT against Padi4, the z-score is inactive: -0.128.

Turning to GGAGAUCACUAUGUUCUGATT against Ivd, the z-score is inactive: -0.0574.

As to GGAGACAGUUCAGAAGUGGTT against Glp2r, the z-score is inactive: 1.48.

Regarding CGAUAUUUAUCAUGAGUGCTT against Nalp9c, the z-score was inactive: 0.724.

GGCAAUGAUUAAAGGAAAATT against Olfr1436: the z-score is inactive: -0.106.

With “CCUAAAACUCCUCUAUCUUTT against 4933403H06Rik”, the z-score is inactive: 0.255.

Take GGGUUUACUUCUCAGACAGTT against Gtl3: the z-score was inactive: -0.908.

Take CCAUUAUUCUAGUGUCCUATT against Olfr1368: the z-score is inactive: 0.449.

For GCAGAUGCUCUCCUUAAAATT against Siglec10, the z-score is inactive: 0.233.

As to “CCCACUUUAACCCUUUAUUTT against E130309F12Rik”, the z-score was inactive: -0.45.

On to GGAGACGACAAAAAUCAGATT against Mrpl32, for which the z-score is inactive: 0.124.

Consider GGCUGAGUAAUGAACCUCUTT against Gmnn, for which the z-score is inactive: -1.67.

On to GCUUGGAAACUCGUCUAAATT against Map1lc3b, for which the z-score is inactive: -0.718.

For the sequence UACACUAGUGCUGUUUACATT against Olfr192, the z-score was inactive: -1.11.

Take GUUCUGAGAGGAAAAGACUTT against Olfr559: the z-score was inactive: 1.19.

With GCAUUUUCUGCUCGAUAUUTT against Skil, the z-score was inactive: -0.0796.

For the sequence GGAUCCUGGAUAAUCUGGGTT against Plscr1, the z-score is inactive: 0.301.

Take GGUGACCAGCAAGUCAUGCTT against Chrdl1: the z-score was inactive: -0.419.

Turning to “GCGUGGUAGAUGCUAUUAATT against 5730466C23Rik”, the z-score is inactive: -1.17.

For GGAAAGUCUACAUGUAUUATT against Enpp6, the z-score is inactive: 0.468.

Regarding “GGUGAAAUUUGUCAUGGUCTT against 1810017G16Rik”, the z-score is inactive: 0.403.

For GUGGACUUCUUCCUGUUGGTT against Tmem15, the z-score was inactive: -0.00879.

As to “GGGUUUUAGAAUGAAAUACTT against 0610009E20Rik”, the z-score was inactive: 0.629.

Turning to GCAAAAGAGUUGGAGUUAGTT against Pcnt2, the z-score is inactive: 0.137.

With CCACUGAAAGGAACAACAATT against Col6a2, the z-score was inactive: 0.553.

On to GGUGAUGCUAGUGAUUGAUTT against Ngb, for which the z-score is inactive: 1.88.

As for “CCCUCGACUUCUUACUGUCTT against D10Ertd802e”, the z-score is inactive: 0.00176.

Regarding GCUGUCACUUCAAUAACUGTT against BC024582, the z-score was inactive: -0.786.

As to GCAGUGGUAACAGUGGCCATT against Reg3g, the z-score is inactive: 2.08.

For the sequence “GCUAAACAUAAAAAUCGACTT against 4931406P16Rik”, the z-score is inactive: 1.4.

GGCAAUAAGCACCUGGGUATT against Serpini2: the z-score is inactive: -0.415.

Turning to GGCUUAUCUCUAAAUCCAATT against Afp, the z-score is inactive: 0.0478.

With CCAGACUAGAUAUCAUAUCTT against Nup54, the z-score is inactive: 0.227.

As to GGAUUUCAUCAAAGGUCUUTT against Kcnip4, the z-score was inactive: -0.873.

Take GGCUUUCUUCAGUUUUGUCTT against Slc33a1: the z-score was inactive: -0.779.

As to GGUUCUCAAGGAAUUGCCCTT against R3hdm, the z-score was inactive: 0.658.

GGCAGGAGAAAGGCCUUUUTT against Olfr535: the z-score was inactive: -1.3.

GGGAACCAGCCAGUUCAAGTT against Ap1g2: the z-score was inactive: 0.277.

Turning to GGUUGAUGUCAGUGGAAGATT against Dab2ip, the z-score was inactive: 0.0174.

As for “GGAAUUUGUAUGGUCUCUGTT against D530005L17Rik”, the z-score is inactive: 0.415.

For the sequence CCUGGAUAUGCGCAAGUGUTT against Oxt, the z-score is inactive: -1.48.

Consider “GCAUGGGAGCAGUGUGAACTT against 4930542G03Rik”, for which the z-score was inactive: -0.539.

As for GGAGUGAAAAAAAUUCACATT against Chrna1, the z-score is inactive: 1.03.

As to GGAACACAAGAUUUUCCUGTT against Ppp2r5c, the z-score was inactive: 2.15.

On to “GGCUUUGGCUCCAUUAUUCTT against 3300001M20Rik”, for which the z-score is inactive: -0.177.

With GCAGAUCGAGUGAGCUCUATT against Ccr2, the z-score was inactive: -2.31.

With GGAGAUCAUCCACUUCCAGTT against Dbh, the z-score was inactive: -1.33.

In the case of CCUUCCUCCUUUAUGAGCATT against Tsga10, the z-score was inactive: -1.07.

Take GGUCAAACUUCAAUAGACATT against Zfp535: the z-score is inactive: 0.947.

Regarding GGAAGUGGUAAUUUCAGUATT against Ssr1, the z-score is inactive: -0.425.

Regarding GGUUUCAAUUCUGUGUUCATT against Unc5b, the z-score was inactive: -0.533.

Take “CCACGUGAAGGAGAGAUGATT against 2700078K21Rik”: the z-score is inactive: -0.357.

Consider CGUGGAUGAGAACUAACCUTT against Rpl31, for which the z-score was inactive: -2.78.

As for GGAAUUGACUUUAAGACAATT against Boll, the z-score is inactive: -0.297.

Consider GGGCAAAAUAUAGCAAUGATT against V1rf5, for which the z-score is inactive: 0.0734.

With CCUGCAUGCCUAUGUGCGUTT against Ace, the z-score is inactive: 0.0353.

As for CCUUGUGAUUGACGAGUGUTT against Snrpg, the z-score is inactive: -2.72.

On to GGAAGAGAGCCUCUGCCAATT against Ccnb2, for which the z-score is inactive: -1.39.

Consider CGUCUGUCAGAAACUACACTT against Atrnl, for which the z-score is inactive: -1.01.

As for “GCCUUAACCGCCAGAUGUCTT against 2900026A02Rik”, the z-score was inactive: -0.861.

Consider GAAACUUAGGGAAACACUATT against Cutl1, for which the z-score is inactive: -0.929.
